From paper PMC3678999, “A Structural Basis for IκB Kinase 2 Activation Via Oligomerization-Dependent Trans Auto-Phosphorylation” (PLoS Biology, 2013)
Results are given in words; binding and its absence hold for the method and conditions named. Some results given as binding are weak or reduced against the parent protein; the word gives no strength.

By UniProt entry, the sequences of proteins in these tests, tags left out.
UniProt O88522: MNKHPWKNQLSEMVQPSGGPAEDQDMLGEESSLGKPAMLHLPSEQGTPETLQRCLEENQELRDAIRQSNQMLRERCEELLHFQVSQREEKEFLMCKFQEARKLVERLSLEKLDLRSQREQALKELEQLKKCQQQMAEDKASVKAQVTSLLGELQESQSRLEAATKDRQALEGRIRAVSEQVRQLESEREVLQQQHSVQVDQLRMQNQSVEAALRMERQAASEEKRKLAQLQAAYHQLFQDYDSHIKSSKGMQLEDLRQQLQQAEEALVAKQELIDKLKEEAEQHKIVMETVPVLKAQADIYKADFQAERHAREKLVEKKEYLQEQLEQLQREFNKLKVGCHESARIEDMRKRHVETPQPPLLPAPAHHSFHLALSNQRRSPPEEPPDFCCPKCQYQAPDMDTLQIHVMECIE

Biological target: T1, endogenous IKK2 of MEF-3T3 cells (mouse (endogenous in MEF-3T3)) (UniProt O88351)
T1 sequence: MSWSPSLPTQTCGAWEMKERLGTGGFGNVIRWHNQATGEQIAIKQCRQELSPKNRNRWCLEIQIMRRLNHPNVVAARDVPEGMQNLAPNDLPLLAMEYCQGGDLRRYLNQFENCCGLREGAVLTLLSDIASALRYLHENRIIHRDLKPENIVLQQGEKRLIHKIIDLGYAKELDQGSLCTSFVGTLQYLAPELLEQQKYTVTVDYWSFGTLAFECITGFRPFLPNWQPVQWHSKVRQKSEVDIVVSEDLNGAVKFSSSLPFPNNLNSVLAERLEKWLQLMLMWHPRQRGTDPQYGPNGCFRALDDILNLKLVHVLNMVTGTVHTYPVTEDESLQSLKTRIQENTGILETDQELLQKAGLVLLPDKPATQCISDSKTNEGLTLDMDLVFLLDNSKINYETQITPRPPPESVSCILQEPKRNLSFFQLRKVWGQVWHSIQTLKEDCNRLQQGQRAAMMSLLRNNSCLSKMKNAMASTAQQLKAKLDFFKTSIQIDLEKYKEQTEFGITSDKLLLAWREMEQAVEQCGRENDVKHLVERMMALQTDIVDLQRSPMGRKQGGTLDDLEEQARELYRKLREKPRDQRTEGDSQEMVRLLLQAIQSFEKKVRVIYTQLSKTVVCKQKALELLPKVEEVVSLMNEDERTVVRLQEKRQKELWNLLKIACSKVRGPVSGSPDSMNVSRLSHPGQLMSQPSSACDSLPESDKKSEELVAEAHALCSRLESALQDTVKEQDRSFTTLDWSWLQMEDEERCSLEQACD
Assay: SEC; cytosolic extracts of MEF-3T3 cells, untreated or treated with 10 ng/mL TNF for 10 min, on Superose 6; fractions blotted with anti-IKK2 and anti-NEMO; 25 mM Tris pH 7.5, 150 mM NaCl, 5% glycerol, 2 mM DTT

## endogenous NEMO of MEF-3T3 cells (from UniProt O88522 1-412)
  binding: binds
